Source: publication doi:10.1101/2021.06.28.450235
No constants are given. Whether binding was seen depends on the method and setting. Some results given as binding are weak or reduced against the parent protein; the word gives no strength.

B1: Psb27 auxiliary protein (protein, UniProt Q8DG60 22-134)
chain: CANVPTGLTGNFREDTLALISSLREAIALPENDPNKKAAQAEARKKLNDFFALYRRDDSLRSLSSFMTMQTALNSLAGHYSSYPNRPLPEKLKARLEQEFKQVELALDREAKS
B2: Psb28 auxiliary protein (protein, UniProt Q8DLJ8 1-116)
chain: MGAMAEIQFIRGINEEVVPDVRLTRARDGSSGQAMFYFDNPKIVQEGNLEVTGMYMVDEEGEIVTRDVNAKFINGQPVAIEATYTMRSPQEWDRFIRFMDRYAASHGLGFQKSENS
B3: Psb34 auxiliary protein (protein, UniProt Q8DMP8 1-56)
chain: MRYTTDEGGRLNNFAIEPKVYQAQPWTPQQKVRAALLVGGGLLLVAGLVAIAVGVS

Target: CP43 subunit of photosystem II with a C-terminal Twin-Strep-tag (T. elongatus) (UniProt Q8DIF8)
Test: affinity co-purification read by SDS-PAGE

Row | Binder | binding
1 | B1 | binds
2 | B2 | binds
3 | B3 | binds
